Laboratory results reported in patent US20260209370A1 (RADIANT BIOTHERAPEUTICS, published 2026).
No constants are given. Whether binding was seen depends on the method and setting. Binding calls can cover weak binding; strength is not graded here.

Target: recombinant cynomolgus monkey 4-1BB protein (cynomolgus monkey)
Test: ELISA, plates coated with recombinant 4-1BB, detection with goat α-human Fcγ-HRP

- binding: binds
B1: AG10058 IgG (IgG4; parent IgG of Fab #3) (antibody, V domains shown)
VH: EVQLVESGGGLVQPGGSLRLSCAASGFSLSTSGVGVGWIRQAPGKGLEWLALIDWDDDKYYSPSLKSRLTISRDNSKNTLYLQLNSLRAEDTAVYYCARGGSDTVLGDWFAYWGQGTLVTVSS
VL: DIQLTQSPSSLSASVGDRVTITCRASQSVSPYLAWYQQKPGKAPKLLIYDASSLESGVPSRFSGSGSGTDFTLTISSLQPEDFATYYCQQGYSLWTFGQGTKVEIK
notes: also called Fab #3 IgG
